Values from PubChem BioAssay AID1259405 (NCATS, 2018)

Test: 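Knock-downs that lift recombinant protein yield in hamster ovary cells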 (primary screen)
System: Chinese hamster CHO-K1 ovary cells with stable secreted eGFP expression
Reagents: single siRNA against mouse genes, 0.8 pmol siRNA per well (2 µl of 400 nM stock)
Time to read-out: 3 days
Measurement: 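Per-well intracellular GFP measured by laser scanning cytometry, plus viability from ATP luminescence, each relative to plate median of non-targeting control wells, in %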
Direction: GFP, % of control: higher = more GFP per well, higher productivity; viability (ATP), % of control: higher = more viable cells (more ATP)
Active means: 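a knock-down is called active if GFP reaches 120% or more of non-targeting control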
This is one part, drawn at random, of about 50,000 deposited reagents. Of all reagents, about 4,000 (8%) got an active call. 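Mouse siRNA library applied to hamster cells; one well for each siRNA.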 A number with no mark means an inactive call. Reagents against one gene are numbered here.

Tnfaip8l2 (GeneID 69769) #1 — GFP, % of control = 85.5; viability (ATP), % of control = 96.7
Tnfaip8l2 (GeneID 69769) #2 — GFP, % of control = 78.4; viability (ATP), % of control = 83.1
Tnfaip8l2 (GeneID 69769) #3 — GFP, % of control = 46; viability (ATP), % of control = 64.3
Krtap4-7 (GeneID 76444) #1 — GFP, % of control = 70.8; viability (ATP), % of control = 67
Krtap4-7 (GeneID 76444) #2 — GFP, % of control = 73.8; viability (ATP), % of control = 91
Krtap4-7 (GeneID 76444) #3 — GFP, % of control = 101; viability (ATP), % of control = 82.1
Gphb5 (GeneID 217674) #1 — GFP, % of control = 98.2; viability (ATP), % of control = 75.3
Gphb5 (GeneID 217674) #2 — GFP, % of control = 129 (active); viability (ATP), % of control = 117
Gphb5 (GeneID 217674) #3 — GFP, % of control = 105; viability (ATP), % of control = 91.1
Defb13 (GeneID 246083) #1 — GFP, % of control = 57.7; viability (ATP), % of control = 78.5
Defb13 (GeneID 246083) #2 — GFP, % of control = 61.3; viability (ATP), % of control = 114
Defb13 (GeneID 246083) #3 — GFP, % of control = 99.3; viability (ATP), % of control = 78
Smim14 (GeneID 68552) #1 — GFP, % of control = 86.7; viability (ATP), % of control = 77.7
Smim14 (GeneID 68552) #2 — GFP, % of control = 91.4; viability (ATP), % of control = 57.3
Smim14 (GeneID 68552) #3 — GFP, % of control = 87.7; viability (ATP), % of control = 83.7
Taf15 (GeneID 70439) #1 — GFP, % of control = 60.3; viability (ATP), % of control = 58.3
Taf15 (GeneID 70439) #2 — GFP, % of control = 61.6; viability (ATP), % of control = 95.7
Taf15 (GeneID 70439) #3 — GFP, % of control = 77.7; viability (ATP), % of control = 63.1
Actrt2 (GeneID 73353) #1 — GFP, % of control = 77; viability (ATP), % of control = 72.4
Actrt2 (GeneID 73353) #2 — GFP, % of control = 66.3; viability (ATP), % of control = 84
Ctla4 (GeneID 12477) #1 — GFP, % of control = 49.7; viability (ATP), % of control = 79
Ctla4 (GeneID 12477) #2 — GFP, % of control = 79.2; viability (ATP), % of control = 50.9
Ctla4 (GeneID 12477) #3 — GFP, % of control = 70.4; viability (ATP), % of control = 84

The list goes on, starting with the last 5 of the part before.
Actrt2 (GeneID 73353) #1 — GFP, % of control = 77; viability (ATP), % of control = 72.4
Actrt2 (GeneID 73353) #2 — GFP, % of control = 66.3; viability (ATP), % of control = 84
Ctla4 (GeneID 12477) #1 — GFP, % of control = 49.7; viability (ATP), % of control = 79
Ctla4 (GeneID 12477) #2 — GFP, % of control = 79.2; viability (ATP), % of control = 50.9
Ctla4 (GeneID 12477) #3 — GFP, % of control = 70.4; viability (ATP), % of control = 84
Map3k1 (GeneID 26401) — GFP, % of control = 69.4; viability (ATP), % of control = 73.6
Vmn1r210 (GeneID 171269) #1 — GFP, % of control = 81.1; viability (ATP), % of control = 26.2
Vmn1r210 (GeneID 171269) #2 — GFP, % of control = 65.4; viability (ATP), % of control = 96.7
Vmn1r210 (GeneID 171269) #3 — GFP, % of control = 32.9; viability (ATP), % of control = 28.4
Ttc33 (GeneID 67515) #1 — GFP, % of control = 86.9; viability (ATP), % of control = 101
Ttc33 (GeneID 67515) #2 — GFP, % of control = 71.5; viability (ATP), % of control = 97
Rbmx2 (GeneID 209003) #1 — GFP, % of control = 94; viability (ATP), % of control = 66.6
Rbmx2 (GeneID 209003) #2 — GFP, % of control = 113; viability (ATP), % of control = 84.6
Rbmx2 (GeneID 209003) #3 — GFP, % of control = 71.5; viability (ATP), % of control = 70.2
Lce3c (GeneID 94060) #1 — GFP, % of control = 81.4; viability (ATP), % of control = 74.5
Lce3c (GeneID 94060) #2 — GFP, % of control = 85; viability (ATP), % of control = 93.3
Lce3c (GeneID 94060) #3 — GFP, % of control = 186 (active); viability (ATP), % of control = 149
Irf5 (GeneID 27056) #1 — GFP, % of control = 43.9; viability (ATP), % of control = 45.3
Irf5 (GeneID 27056) #2 — GFP, % of control = 80.9; viability (ATP), % of control = 59.3
Irf5 (GeneID 27056) #3 — GFP, % of control = 111; viability (ATP), % of control = 96
Ttc13 (GeneID 234875) #1 — GFP, % of control = 36.6; viability (ATP), % of control = 86
Ttc13 (GeneID 234875) #2 — GFP, % of control = 68.7; viability (ATP), % of control = 95.5
Ttc13 (GeneID 234875) #3 — GFP, % of control = 64.8; viability (ATP), % of control = 57.7
Or4c109 (GeneID 258899) #1 — GFP, % of control = 73.6; viability (ATP), % of control = 82.4
Or4c109 (GeneID 258899) #2 — GFP, % of control = 65.4; viability (ATP), % of control = 86.7
Or4c109 (GeneID 258899) #3 — GFP, % of control = 66.9; viability (ATP), % of control = 72.4
Sbk1 (GeneID 104175) #1 — GFP, % of control = 72.5; viability (ATP), % of control = 72.6
Sbk1 (GeneID 104175) #2 — GFP, % of control = 89.5; viability (ATP), % of control = 73.5
Sbk1 (GeneID 104175) #3 — GFP, % of control = 88.4; viability (ATP), % of control = 87.1
4930503E14Rik (GeneID 74954) #1 — GFP, % of control = 45.1; viability (ATP), % of control = 53.6
4930503E14Rik (GeneID 74954) #2 — GFP, % of control = 88.3; viability (ATP), % of control = 89.2
4930503E14Rik (GeneID 74954) #3 — GFP, % of control = 106; viability (ATP), % of control = 112
Tor4a (GeneID 227612) #1 — GFP, % of control = 47; viability (ATP), % of control = 57.2
Tor4a (GeneID 227612) #2 — GFP, % of control = 46; viability (ATP), % of control = 77.6
Tor4a (GeneID 227612) #3 — GFP, % of control = 61.4; viability (ATP), % of control = 80.5
